# Assay results taken from the supplement of paper PMC7411640.
# Counter-ions that a name gives are not always drawn. Some of the results follow. Single values are uncertain here, since repeats match poorly.
# System: MDA-MB-468
# Test: phospho-S6 immunofluorescence (DAPI-normalised), per-plate z-score; higher = higher phospho-S6 signal (less pathway suppression)
# Details: 24 h
# Experimental: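 GPCR-targeted compound library (MedChemExpress HY-L006) tested on MDA-MB-468 PTEN-null TNBC cells in 384-well plates at 0.1, 1 or 10 uM, combined with vehicle, GDC0941 450 nM or lapatinib 1 uM, for 24 h. Phospho-S6 (S240/244) immunofluorescence normalised to DAPI and expressed as a per-plate z-score; values are the mean of biological triplicates.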
# [1] = compound 0.1 µM, co-treatment: GDC0941 450 nM
# [2] = compound 0.1 µM, co-treatment: lapatinib 1 uM
# [3] = compound 0.1 µM, co-treatment: vehicle
# [4] = compound 1 µM, co-treatment: GDC0941 450 nM
# [5] = compound 1 µM, co-treatment: lapatinib 1 uM
# [6] = compound 1 µM, co-treatment: vehicle
# [7] = compound 10 µM, co-treatment: GDC0941 450 nM
# [8] = compound 10 µM, co-treatment: lapatinib 1 uM
# [9] = compound 10 µM, co-treatment: vehicle
Compound,phospho-S6 immunofluorescence (z-score) [1],phospho-S6 immunofluorescence (z-score) [2],phospho-S6 immunofluorescence (z-score) [3],phospho-S6 immunofluorescence (z-score) [4],phospho-S6 immunofluorescence (z-score) [5],phospho-S6 immunofluorescence (z-score) [6],phospho-S6 immunofluorescence (z-score) [7],phospho-S6 immunofluorescence (z-score) [8],phospho-S6 immunofluorescence (z-score) [9]
Cc1cccc(Cc2c[nH]cn2)c1C [Detomidine (hydrochloride)],-0.14,0.63,-0.57,-0.56,-0.12,-1.53,,,
CNCC(=O)c1ccc(O)c(O)c1 [Adrenalone (hydrochloride)],0.29,-0.35,-0.04,-0.45,-0.22,-0.27,,,
O=C(C[S+]([O-])C(c1ccccc1)c1ccccc1)NO (stereo not given) [Adrafinil],1.05,-0.22,-1,-0.36,0,-0.91,-0.02,0.28,-0.05
CN1CCC2=C(C1)c1ccccc1Cc1ccccc12 [Setiptiline (maleate)],-0.5,-0.43,-1.65,-0.11,-1.75,-0.46,-0.68,-1.28,-1.11
O=C1Nc2ccccc2C2(CCN(CCc3ccc(C(F)(F)F)cc3)CC2)O1,0.88,1.02,-0.13,0.65,-0.99,0.7,,,
COc1ccc2c(c1)[C@]13CCCC[C@@H]1[C@H](C2)N(C)CC3 [Dextromethorphan (hydrobromide hydrate)],0.78,0.88,0.11,0.04,-0.4,-0.4,-0.24,-0.31,0.42
